The record followed here is publication PMC7002408.

For experiment [1], the target named is CFP^C-OsTb2 (rice (Oryza sativa)). As to the kind of experiment: split reporter; YFP^N and CFP^C fusions cotransformed into protoplasts (PEG-mediated), 28 °C in the dark overnight, confocal microscopy; AHL22-mRFP as nuclear marker; GUS fusions as negative controls.
Experiment [2] concerns the target GFP-OsTb2 (rice (Oryza sativa)). As to the kind of experiment: co-IP; protein extracts of rice protoplasts with GFP-OsTb2 and MYC-OsTb1, precipitated with anti-GFP agarose beads overnight, Western blot with anti-GFP and anti-MYC.

No constants are given. Whether binding was seen depends on the method and setting. Binding seen in cells or lysates may run through a third protein. Binding can be weak; no strength is given. Where a sequence is shown, tags or fusion partners need not be part of it.

B1: YFP^N-OsTb1 (protein, UniProt Q8LN68 1-388)
chain: MLPFFDSPSPMDIPLYQQLQLTPPSPKPDHHHHHHSTFFYYHHHPPPSPSFPSFPSPAAATIASPSPAMHPFMDLELEPHGQQLAAAEEDGAGGQGVDAGVPFGVDGAAAAAAARKDRHSKISTAGGMRDRRMRLSLDVARKFFALQDMLGFDKASKTVQWLLNMSKAAIREIMSDDASSVCEEDGSSSLSVDGKQQQHSNPADRGGGAGDHKGAAHGHSDGKKPAKPRRAAANPKPPRRLANAHPVPDKESRAKARERARERTKEKNRMRWVTLASAISVEAATAAAAAGEDKSPTSPSNNLNHSSSTNLVSTELEDGSSSTRHNGVGVSGGRMQEISAASEASDVIMAFANGGAYGDSGSYYLQQQHQQDQWELGGVVYANSRHYC
As to B1, the binding entry in experiment [1] is listed as “binds”.

B2: MYC-OsTb1 (protein, UniProt Q8LN68 1-388)
chain: B1 chain
Consider B2, for which the binding result in experiment [2] is listed as “binds”.
